In US8168625B2, “Pharmaceutical composition based on agonist of benzodiazepine” (Sigma Pharma Ltda., priority 2003, dated 2012):

Test: Bioavailability after single dose: sublingual tablets (Examples I-III) versus conventional oral tablets, crossed randomized studies
Settings: for AUC(0-inf) / AUC(0-t) / Cmax / Tmax / concentration / concentration at 0 min / concentration at 20 min / concentration at 40 min / concentration at 1 h / concentration at 1.5 h / concentration at 2 h / concentration at 2.5 h / concentration at 4 h / concentration at 6 h / concentration at 8 h / concentration at 10 h / concentration at 12 h / concentration at 24 h / concentration at 3.5 h: male, human, plasma; for concentration at 3.5 h: 10 mg
Method: Three studies were carried out, each of them with eight healthy volunteers of the male sex, recruited after information on the nature and characteristics of the principles included in the scope of the study. Each study, composed of two periods of treatment, was carried out according to a crossed and randomized scheme. All individuals received the previously established dose of the active ingredient in the form of conventional oral tablets and sublingual tablets, with a period of detoxication of, at least, seven days between the first and the following administration, according to a previously established randomized list. The sublingual tablets were placed under the tongue until complete dissolution, in correspondence with the venous plexus, while the conventional oral tablets were swallowed unbroken with 150 ml of mineral water. Within the intervals of 0-20-40 minutes, 1-1,5-2-2,5-3-3,5-4-6-8-10-[…] and 24 hours after the treatment, 5 ml of blood were collected.

## CN1C(=O)CN=C(c2ccccc2)c2cc(Cl)ccc21 [DIAZEPAM, diazepam]
  AUC(0-inf): 4.97 ± 0.743 µg·h/mL
  AUC(0-t): 2.73 ± 0.144 µg·h/mL
  Cmax: 0.322 ± 0.0134 µg/mL
  Tmax: 45 ± 9 min
other: sublingual
  concentration: 0.157 ± 0.0121 µg/mL
  concentration at 0 min: 0 µg/mL
  concentration at 20 min: 0.194 ± 0.0319 µg/mL
  concentration at 40 min: 0.308 ± 0.0369 µg/mL
  concentration at 1 h: 0.274 ± 0.0314 µg/mL
  concentration at 1.5 h: 0.21 ± 0.0214 µg/mL
  concentration at 2 h: 0.178 ± 0.0135 µg/mL
  concentration at 2.5 h: 0.163 ± 0.0147 µg/mL
  concentration at 4 h: 0.132 ± 0.0117 µg/mL
  concentration at 6 h: 0.123 ± 0.009 µg/mL
  concentration at 8 h: 0.111 ± 0.00554 µg/mL
  concentration at 10 h: 0.103 ± 0.0053 µg/mL
  concentration at 12 h: 0.0948 ± 0.0089 µg/mL
  concentration at 24 h: 0.0833 ± 0.0111 µg/mL
  concentration at 3.5 h: 0.146 ± 0.0106 µg/mL
other: sublingual versus oral
  Tmax: ~30 min
po
  AUC(0-inf): 5.39 ± 1.13 µg·h/mL
  AUC(0-t): 2.91 ± 0.287 µg·h/mL
  Cmax: 0.308 ± 0.0302 µg/mL
  Tmax: 75 ± 16.2 min
  concentration: 0.183 ± 0.0194 µg/mL
  concentration at 0 min: 0 µg/mL
  concentration at 20 min: 0.0519 ± 0.0076 µg/mL
  concentration at 40 min: 0.106 ± 0.0133 µg/mL
  concentration at 1 h: 0.276 ± 0.0456 µg/mL
  concentration at 1.5 h: 0.28 ± 0.036 µg/mL
  concentration at 2 h: 0.235 ± 0.0261 µg/mL
  concentration at 2.5 h: 0.203 ± 0.0217 µg/mL
  concentration at 4 h: 0.155 ± 0.017 µg/mL
  concentration at 6 h: 0.134 ± 0.0144 µg/mL
  concentration at 8 h: 0.119 ± 0.0131 µg/mL
  concentration at 10 h: 0.11 ± 0.0138 µg/mL
  concentration at 12 h: 0.103 ± 0.0152 µg/mL
  concentration at 24 h: 0.0944 ± 0.014 µg/mL
  concentration at 3.5 h: 0.166 ± 0.0179 µg/mL
Sublingual versus conventional oral tablets
  AUC and Cmax, sublingual versus oral: comparable
